Patent WO2016071355A1
No constants are given. Whether binding was seen depends on the method and setting. Some entries that bind do so weakly or less than the wild type.

Amino acid sequences for entries named in this document (tags omitted). A change or cut given only in a name is not applied to a line headed by its entry.
UniProt Q5VAN0: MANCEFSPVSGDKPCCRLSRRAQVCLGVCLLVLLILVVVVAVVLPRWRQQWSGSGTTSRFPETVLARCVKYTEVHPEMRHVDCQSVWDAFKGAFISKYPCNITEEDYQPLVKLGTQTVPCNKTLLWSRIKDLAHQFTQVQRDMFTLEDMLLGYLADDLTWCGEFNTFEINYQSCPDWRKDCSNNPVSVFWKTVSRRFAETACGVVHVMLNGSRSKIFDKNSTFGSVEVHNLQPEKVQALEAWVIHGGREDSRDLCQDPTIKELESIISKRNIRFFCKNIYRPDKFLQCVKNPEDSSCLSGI
UniProt P28907: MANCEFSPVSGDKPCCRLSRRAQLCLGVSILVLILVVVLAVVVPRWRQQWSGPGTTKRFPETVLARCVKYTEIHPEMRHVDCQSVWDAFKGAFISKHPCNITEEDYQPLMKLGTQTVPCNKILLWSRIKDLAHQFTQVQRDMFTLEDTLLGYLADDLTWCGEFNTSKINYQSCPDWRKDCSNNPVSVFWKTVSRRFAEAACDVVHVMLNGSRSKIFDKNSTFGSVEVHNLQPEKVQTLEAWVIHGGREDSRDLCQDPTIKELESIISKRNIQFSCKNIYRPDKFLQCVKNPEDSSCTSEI

How the values were obtained:
[1] = target: soluble extracellular region of cynomolgus monkey CD38 antigen fused to a 6-His-tag (cynomolgus monkey) (UniProt Q5VAN0); test: SPR
[2] = target: soluble extracellular region of human CD38 fused to a 6-His-tag (human) (UniProt P28907); test: SPR, antibody immobilized, human CD38 extracellular domain injected as control

binding [1]: binds
binding [2]: binds
B1: humanized 9G7 antibody (best-fit version) of Example 10 (antibody, human IgG1, kappa, V domains shown)
VH: QVTLKESGPTLVKPTQTLTLTCTFSGLSLSTSGKGVGWIRQPPGKALEWLAHIWWDDDKRYNPALKSRLTITKDTSKNQVVLTMTNMDPVDTATYYCARIELGRSYVMDYWGQGTLVTVSS
VL: DIQMTQSPSSLSASVGDRVTITCQASQDVITSVAWFQQKPGKAPKLLIYSASYRYTGVPSRFSGSGSGTDFTFTISSLQPEDIATYYCQQHYTIPLTFGQGTKLEIKR
